Experimental data as given in the supplement of paper PMC10849652.
This is one part of the list.

The chains behind the UniProt entries cited, without tags or fusion partners. Where a name states a change or a piece, a line headed by the entry shows the natural chain unless it says otherwise.
UniProt Q13261, whole entry, looked up: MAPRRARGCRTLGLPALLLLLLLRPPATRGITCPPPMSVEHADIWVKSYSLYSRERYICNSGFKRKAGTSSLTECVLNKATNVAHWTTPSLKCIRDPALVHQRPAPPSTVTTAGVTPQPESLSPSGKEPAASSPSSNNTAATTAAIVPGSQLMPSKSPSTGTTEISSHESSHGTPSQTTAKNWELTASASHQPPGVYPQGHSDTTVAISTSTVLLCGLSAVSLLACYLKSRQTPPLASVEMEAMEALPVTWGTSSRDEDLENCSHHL
UniProt Q9H160: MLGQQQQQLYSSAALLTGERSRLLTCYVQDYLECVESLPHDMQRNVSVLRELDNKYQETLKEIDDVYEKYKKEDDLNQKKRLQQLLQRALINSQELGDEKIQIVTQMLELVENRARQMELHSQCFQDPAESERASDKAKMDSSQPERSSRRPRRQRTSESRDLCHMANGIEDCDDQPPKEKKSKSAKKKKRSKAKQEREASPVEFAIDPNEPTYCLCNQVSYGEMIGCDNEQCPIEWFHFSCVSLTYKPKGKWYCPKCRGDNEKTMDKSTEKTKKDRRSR
UniProt Q96FT9: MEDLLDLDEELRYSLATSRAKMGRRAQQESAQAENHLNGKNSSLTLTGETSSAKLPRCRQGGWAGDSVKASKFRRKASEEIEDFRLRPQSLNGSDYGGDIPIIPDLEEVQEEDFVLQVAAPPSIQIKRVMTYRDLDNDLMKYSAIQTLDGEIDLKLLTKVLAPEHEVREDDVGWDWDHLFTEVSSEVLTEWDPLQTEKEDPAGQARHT
UniProt P30939: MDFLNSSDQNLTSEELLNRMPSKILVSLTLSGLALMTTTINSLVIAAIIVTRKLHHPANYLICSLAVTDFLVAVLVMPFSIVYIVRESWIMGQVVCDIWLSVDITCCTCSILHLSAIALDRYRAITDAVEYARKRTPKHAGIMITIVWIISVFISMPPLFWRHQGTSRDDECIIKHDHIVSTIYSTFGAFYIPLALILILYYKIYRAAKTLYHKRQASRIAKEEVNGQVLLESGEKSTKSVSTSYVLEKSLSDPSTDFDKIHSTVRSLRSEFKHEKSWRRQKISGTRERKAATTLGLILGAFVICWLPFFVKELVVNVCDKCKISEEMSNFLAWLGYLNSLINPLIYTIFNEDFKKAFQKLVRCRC
UniProt Q8WYH8, whole entry, looked up: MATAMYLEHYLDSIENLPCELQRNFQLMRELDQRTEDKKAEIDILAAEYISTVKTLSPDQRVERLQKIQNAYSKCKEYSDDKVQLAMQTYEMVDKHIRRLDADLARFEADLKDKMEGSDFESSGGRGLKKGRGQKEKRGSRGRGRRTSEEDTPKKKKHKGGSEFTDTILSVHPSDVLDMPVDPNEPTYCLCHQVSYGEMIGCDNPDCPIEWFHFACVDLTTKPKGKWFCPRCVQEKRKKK
UniProt Q9H7X7: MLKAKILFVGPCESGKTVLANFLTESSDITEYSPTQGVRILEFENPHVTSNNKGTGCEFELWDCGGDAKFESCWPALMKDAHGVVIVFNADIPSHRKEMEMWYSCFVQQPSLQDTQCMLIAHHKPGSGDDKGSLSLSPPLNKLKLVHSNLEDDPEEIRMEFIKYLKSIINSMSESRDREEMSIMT
UniProt P22304: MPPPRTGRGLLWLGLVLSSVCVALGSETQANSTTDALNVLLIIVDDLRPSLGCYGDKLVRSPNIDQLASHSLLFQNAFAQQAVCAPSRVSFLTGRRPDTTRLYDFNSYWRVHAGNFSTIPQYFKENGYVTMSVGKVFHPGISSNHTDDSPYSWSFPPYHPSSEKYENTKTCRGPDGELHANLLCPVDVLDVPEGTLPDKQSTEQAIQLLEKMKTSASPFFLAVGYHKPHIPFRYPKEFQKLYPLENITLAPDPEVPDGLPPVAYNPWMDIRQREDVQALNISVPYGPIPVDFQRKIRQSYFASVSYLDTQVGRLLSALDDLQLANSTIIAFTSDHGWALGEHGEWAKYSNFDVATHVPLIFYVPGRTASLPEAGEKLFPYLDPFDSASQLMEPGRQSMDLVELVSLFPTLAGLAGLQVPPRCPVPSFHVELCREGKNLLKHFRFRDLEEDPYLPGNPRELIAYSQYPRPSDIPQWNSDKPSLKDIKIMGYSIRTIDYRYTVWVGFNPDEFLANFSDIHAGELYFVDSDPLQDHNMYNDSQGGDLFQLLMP
UniProt Q6PI98, whole entry, looked up: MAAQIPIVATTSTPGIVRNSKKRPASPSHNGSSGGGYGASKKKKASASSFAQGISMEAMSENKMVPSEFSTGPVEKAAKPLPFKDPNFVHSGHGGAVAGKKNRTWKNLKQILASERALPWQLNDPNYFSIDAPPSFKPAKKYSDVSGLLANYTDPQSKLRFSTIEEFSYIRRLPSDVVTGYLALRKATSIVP
UniProt Q9UG01, whole entry, looked up: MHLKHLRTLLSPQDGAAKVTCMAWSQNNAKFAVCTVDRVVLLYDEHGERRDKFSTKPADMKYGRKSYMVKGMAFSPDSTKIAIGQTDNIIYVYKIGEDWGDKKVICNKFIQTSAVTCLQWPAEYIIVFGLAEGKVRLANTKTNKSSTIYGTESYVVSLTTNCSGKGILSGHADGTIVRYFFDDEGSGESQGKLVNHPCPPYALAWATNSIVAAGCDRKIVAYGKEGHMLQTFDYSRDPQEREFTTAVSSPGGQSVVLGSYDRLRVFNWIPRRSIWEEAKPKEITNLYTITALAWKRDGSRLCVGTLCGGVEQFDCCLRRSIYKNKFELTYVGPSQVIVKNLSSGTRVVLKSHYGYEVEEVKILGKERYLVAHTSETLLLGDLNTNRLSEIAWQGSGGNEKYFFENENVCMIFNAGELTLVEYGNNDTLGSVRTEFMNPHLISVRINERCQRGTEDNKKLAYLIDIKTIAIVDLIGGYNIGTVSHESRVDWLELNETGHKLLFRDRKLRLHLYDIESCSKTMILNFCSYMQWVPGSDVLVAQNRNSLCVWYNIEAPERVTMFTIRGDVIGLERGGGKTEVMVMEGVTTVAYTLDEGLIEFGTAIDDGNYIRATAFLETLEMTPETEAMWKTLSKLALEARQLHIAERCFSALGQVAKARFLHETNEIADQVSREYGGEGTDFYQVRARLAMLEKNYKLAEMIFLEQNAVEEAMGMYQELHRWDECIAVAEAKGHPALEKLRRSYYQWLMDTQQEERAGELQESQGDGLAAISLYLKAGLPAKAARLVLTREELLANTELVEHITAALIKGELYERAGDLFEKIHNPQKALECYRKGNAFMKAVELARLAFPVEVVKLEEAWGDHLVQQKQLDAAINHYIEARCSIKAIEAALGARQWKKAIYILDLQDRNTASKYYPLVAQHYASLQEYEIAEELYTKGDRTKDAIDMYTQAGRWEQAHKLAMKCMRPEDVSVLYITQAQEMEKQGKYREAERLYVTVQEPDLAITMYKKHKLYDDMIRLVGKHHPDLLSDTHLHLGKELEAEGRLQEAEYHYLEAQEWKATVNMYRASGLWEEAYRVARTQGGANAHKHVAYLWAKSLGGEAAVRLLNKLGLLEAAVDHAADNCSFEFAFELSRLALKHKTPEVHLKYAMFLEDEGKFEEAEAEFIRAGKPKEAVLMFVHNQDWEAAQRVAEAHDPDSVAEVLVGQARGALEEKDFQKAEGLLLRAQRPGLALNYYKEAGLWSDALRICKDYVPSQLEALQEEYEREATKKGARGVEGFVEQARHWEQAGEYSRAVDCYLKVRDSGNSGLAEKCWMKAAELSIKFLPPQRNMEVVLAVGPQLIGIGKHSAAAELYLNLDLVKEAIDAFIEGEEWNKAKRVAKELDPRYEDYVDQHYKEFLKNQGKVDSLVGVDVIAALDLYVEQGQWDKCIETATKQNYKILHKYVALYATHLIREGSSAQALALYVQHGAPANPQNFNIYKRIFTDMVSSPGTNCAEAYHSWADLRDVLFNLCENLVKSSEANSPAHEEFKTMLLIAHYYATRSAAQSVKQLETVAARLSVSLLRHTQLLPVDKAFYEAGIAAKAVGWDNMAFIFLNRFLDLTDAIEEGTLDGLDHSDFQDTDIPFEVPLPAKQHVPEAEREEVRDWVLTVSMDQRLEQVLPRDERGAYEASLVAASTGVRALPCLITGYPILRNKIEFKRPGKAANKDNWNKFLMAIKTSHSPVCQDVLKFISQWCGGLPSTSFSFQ
UniProt P38935: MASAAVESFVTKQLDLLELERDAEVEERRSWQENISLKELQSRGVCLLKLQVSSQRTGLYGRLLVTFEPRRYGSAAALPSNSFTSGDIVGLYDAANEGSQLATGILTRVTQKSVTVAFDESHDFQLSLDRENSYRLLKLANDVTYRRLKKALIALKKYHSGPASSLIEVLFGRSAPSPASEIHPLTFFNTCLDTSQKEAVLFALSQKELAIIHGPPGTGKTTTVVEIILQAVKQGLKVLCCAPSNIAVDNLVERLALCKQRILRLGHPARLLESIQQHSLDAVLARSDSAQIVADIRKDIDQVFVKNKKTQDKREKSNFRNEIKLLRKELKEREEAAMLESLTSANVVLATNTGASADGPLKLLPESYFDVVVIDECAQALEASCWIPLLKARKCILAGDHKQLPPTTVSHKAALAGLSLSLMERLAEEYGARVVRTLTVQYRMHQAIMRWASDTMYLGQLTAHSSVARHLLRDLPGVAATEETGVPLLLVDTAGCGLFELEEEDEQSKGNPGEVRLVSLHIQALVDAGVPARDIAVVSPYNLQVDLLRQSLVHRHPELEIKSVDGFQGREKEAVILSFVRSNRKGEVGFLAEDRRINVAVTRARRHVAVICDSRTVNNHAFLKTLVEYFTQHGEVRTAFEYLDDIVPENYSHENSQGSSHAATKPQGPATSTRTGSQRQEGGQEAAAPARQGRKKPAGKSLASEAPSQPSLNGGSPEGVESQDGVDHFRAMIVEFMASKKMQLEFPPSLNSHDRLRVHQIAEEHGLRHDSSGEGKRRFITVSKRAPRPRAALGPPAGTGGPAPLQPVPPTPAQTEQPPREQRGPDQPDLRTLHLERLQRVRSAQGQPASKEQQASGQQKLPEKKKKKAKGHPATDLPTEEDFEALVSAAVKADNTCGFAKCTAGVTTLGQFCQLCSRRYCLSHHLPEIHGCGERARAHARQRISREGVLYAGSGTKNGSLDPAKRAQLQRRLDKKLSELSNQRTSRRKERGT
UniProt Q9Y6M1: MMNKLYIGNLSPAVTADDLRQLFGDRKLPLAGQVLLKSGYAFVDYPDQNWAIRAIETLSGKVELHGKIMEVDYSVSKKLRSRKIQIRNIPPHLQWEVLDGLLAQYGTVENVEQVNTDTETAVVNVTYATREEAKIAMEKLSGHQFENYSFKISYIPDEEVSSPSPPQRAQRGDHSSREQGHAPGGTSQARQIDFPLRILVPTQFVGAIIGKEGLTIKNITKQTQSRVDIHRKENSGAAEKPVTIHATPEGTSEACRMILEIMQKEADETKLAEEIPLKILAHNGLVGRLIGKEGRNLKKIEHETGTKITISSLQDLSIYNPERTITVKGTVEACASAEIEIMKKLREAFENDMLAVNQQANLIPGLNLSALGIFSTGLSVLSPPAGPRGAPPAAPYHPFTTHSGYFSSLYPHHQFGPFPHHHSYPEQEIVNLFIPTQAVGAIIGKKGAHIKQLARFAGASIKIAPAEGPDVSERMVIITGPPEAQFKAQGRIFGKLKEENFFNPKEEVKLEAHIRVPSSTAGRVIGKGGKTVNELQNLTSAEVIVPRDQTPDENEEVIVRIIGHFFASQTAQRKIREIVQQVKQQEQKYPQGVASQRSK
UniProt Q92598: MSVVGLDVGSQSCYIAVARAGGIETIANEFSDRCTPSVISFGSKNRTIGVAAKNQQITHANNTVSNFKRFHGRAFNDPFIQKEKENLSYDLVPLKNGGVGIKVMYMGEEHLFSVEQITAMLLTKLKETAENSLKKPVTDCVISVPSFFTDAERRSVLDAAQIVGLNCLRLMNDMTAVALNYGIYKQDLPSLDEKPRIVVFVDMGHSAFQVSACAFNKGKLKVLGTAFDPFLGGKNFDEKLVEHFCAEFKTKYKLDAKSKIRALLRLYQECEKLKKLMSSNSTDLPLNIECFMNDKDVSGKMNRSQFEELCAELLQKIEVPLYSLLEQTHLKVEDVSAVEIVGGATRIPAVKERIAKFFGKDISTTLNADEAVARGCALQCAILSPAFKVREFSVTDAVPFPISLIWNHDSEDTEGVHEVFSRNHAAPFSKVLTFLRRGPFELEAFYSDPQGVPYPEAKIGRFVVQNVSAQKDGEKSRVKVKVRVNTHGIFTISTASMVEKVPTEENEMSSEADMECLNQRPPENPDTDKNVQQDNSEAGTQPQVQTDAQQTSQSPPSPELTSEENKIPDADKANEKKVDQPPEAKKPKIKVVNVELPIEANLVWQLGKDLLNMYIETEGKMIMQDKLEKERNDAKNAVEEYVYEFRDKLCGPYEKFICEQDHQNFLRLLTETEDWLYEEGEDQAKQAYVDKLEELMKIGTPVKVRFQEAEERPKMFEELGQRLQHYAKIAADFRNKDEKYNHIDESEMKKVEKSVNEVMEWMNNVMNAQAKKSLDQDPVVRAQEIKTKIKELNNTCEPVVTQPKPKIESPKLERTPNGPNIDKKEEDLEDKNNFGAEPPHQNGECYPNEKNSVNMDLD
UniProt Q9NRY2: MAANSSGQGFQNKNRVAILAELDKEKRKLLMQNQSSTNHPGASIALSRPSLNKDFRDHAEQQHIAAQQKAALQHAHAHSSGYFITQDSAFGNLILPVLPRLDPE

Columns and labels:
Test in all cases: log2 fold change, soluble protein after heating vs DMSO (PISA); higher = thermal stabilisation; K562 lysate, 10 uM; active = over 0.2 and 3.5 SD of the protein, either way, in both replicates (recomputed)
crizotinib = compound: C[C@@H](Oc1cc(-c2cnn(C3CCNCC3)c2)cnc1N)c1c(Cl)ccc(F)c1Cl [crizotinib]
Method in brief: (§1)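 The values are log-two fold changes in thermal stability compared with solvent controls and come from duplicates. They were obtained by TMTpro 16plex LC-MS/MS, with channel sums equalised, on the supernatant after 21,000xg for 90 min. That supernatant came from crude K562 extract at 1 mg/mL protein treated with 10 μM compound for 30 min, heated for 3 min across 48°C-58°C, pooled and brought to 0.5% NP-40 at 4°C.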

doramapimod = compound: Cc1ccc(-n2nc(C(C)(C)C)cc2NC(=O)Nc2ccc(OCCN3CCOCC3)c3ccccc23)cc1 [doramapimod]
Method in brief: as §1

Tubastatin A = compound: CN1CCc2c(c3ccccc3n2Cc2ccc(C(=O)NO)cc2)C1 [Tubastatin A]
Method in brief: as §1

[1] = compound: CNC(=O)C1=CC=CC=C1NC2=NC(=NC=C2Cl)NC3=C(C=C(C=C3)N4CCOCC4)OC
Method in brief: as §1

encorafenib = compound: COC(=O)N[C@@H](C)CNc1nccc(-c2cn(C(C)C)nc2-c2cc(Cl)cc(NS(C)(=O)=O)c2F)n1 [encorafenib]
Method in brief: as §1

[2] = compound: COC(=O)[C@H](CCSC)NC(=O)C1=C(C=C(C=C1)NC[C@H](CS)N)C2=CC=CC=C2
Method in brief: as §1

alisertib = compound: COc1cc(Nc2ncc3c(n2)-c2ccc(Cl)cc2C(c2c(F)cccc2OC)=NC3)ccc1C(=O)O [alisertib]
Method in brief: as §1

[3] = compound: COc1cc2nc(-c3cc(F)ccc3O)nc(N[C@@H]3CNC[C@H]3C(C)(C)O)c2cc1OC
Method in brief: as §1

gefitinib = compound: COc1cc2ncnc(Nc3ccc(F)c(Cl)c3)c2cc1OCCCN1CCOCC1 [gefitinib]
Method in brief: as §1

lapatinib = compound: CS(=O)(=O)CCNCc1ccc(-c2ccc3ncnc(Nc4ccc(OCc5cccc(F)c5)c(Cl)c4)c3c2)o1 [lapatinib]
Method in brief: as §1

pictilisib = compound: CS(=O)(=O)N1CCN(Cc2cc3nc(-c4cccc5[nH]ncc45)nc(N4CCOCC4)c3s2)CC1 [pictilisib]
Method in brief: as §1

tozasertib = compound: Cc1cc(Nc2cc(N3CCN(C)CC3)nc(Sc3ccc(NC(=O)C4CC4)cc3)n2)n[nH]1 [tozasertib]
Method in brief: as §1

bafetinib = compound: Cc1ccc(NC(=O)c2ccc(CN3CC[C@H](N(C)C)C3)c(C(F)(F)F)c2)cc1Nc1nccc(-c2cncnc2)n1 [bafetinib]
Method in brief: as §1

defactinib = compound: CNC(=O)c1ccc(Nc2ncc(C(F)(F)F)c(NCc3nccnc3N(C)S(C)(=O)=O)n2)cc1 [defactinib]
Method in brief: as §1

[4] = compound: CNc1nc(-c2ccc3c(N)n[nH]c3c2)cc(N2C[C@@H](C(=O)NC3CCCCC3)CC[C@H]2C)n1
Method in brief: as §1

duvelisib = compound: C[C@H](Nc1ncnc2nc[nH]c12)c1cc2cccc(Cl)c2c(=O)n1-c1ccccc1 [duvelisib]
Method in brief: as §1

Measured: log2 fold change

IL15RA (UniProt Q13261)
inactive: crizotinib 0.04 | doramapimod 0.061

HYKK (UniProt A2RU49)
inactive: Tubastatin A 0.089 | [1] 0.131 | encorafenib 0.047 | [2] 0.014 | alisertib -0.079 | [3] 0.022 | gefitinib -0.107 | lapatinib 0.022 | pictilisib -0.173 | crizotinib -0.016 | tozasertib -0.135 | doramapimod -0.083 | bafetinib 0.033

IFI16 (UniProt Q16666)
inactive: [1] -0.01

ING2 (UniProt Q9H160)
inactive: encorafenib 0.004 | [2] -0.128 | crizotinib 0.006 | tozasertib -0.124 | doramapimod -0.025

IFT43 (UniProt Q96FT9)
inactive: Tubastatin A 0.015 | [1] 0.081 | defactinib 0.09 | [4] -0.468 | pictilisib 0.053 | crizotinib -0.173 | duvelisib 0.01 | doramapimod 0.137 | bafetinib -0.01

IFIT3 (UniProt O14879)
inactive: Tubastatin A -0.023 | [1] 0.107 | [4] 0.262 | encorafenib 0.118 | [2] -0.316 | crizotinib 0.006 | duvelisib 0.082 | tozasertib 0.03 | doramapimod -0.01

INAFM2 (UniProt P0DMQ5)
inactive: [4] 0.017 | crizotinib -0.015 | duvelisib 0.016 | doramapimod -0.028

Looked up one by one from the list above, two records:
ING2 (UniProt Q9H160)
inactive: encorafenib 0.004 | [2] -0.128 | crizotinib 0.006 | tozasertib -0.124 | doramapimod -0.025

IFIT3 (UniProt O14879)
inactive: Tubastatin A -0.023 | [1] 0.107 | [4] 0.262 | encorafenib 0.118 | [2] -0.316 | crizotinib 0.006 | duvelisib 0.082 | tozasertib 0.03 | doramapimod -0.01

(listing goes on)

HSPBP1 (UniProt K7EMM7)
inactive: [4] -0.015 | duvelisib 0.1

IKZF4 (UniProt Q9H2S9)
inactive: Tubastatin A -0.137 | encorafenib 0.131 | [2] 0.089 | alisertib 0.117 | [3] -0.038 | gefitinib -0.069 | lapatinib 0.19 | pictilisib -0.228 | crizotinib 0.021 | tozasertib 0.125 | doramapimod 0.094 | bafetinib -0.35

HTR1F (UniProt P30939)
inactive: defactinib -0.012 | pictilisib -0.017 | bafetinib -0.029

IFT52 (UniProt Q9Y366)
inactive: [1] 0.253 | alisertib -0.017 | gefitinib 0.138 | crizotinib 0.084 | doramapimod -0.072

IFT122 isoform 5 (UniProt Q9HBG6)
inactive: Tubastatin A -0.008 | defactinib -0.022 | [4] -0.314 | alisertib -0.065 | gefitinib 0.25 | crizotinib 0.149 | duvelisib -0.257 | doramapimod 0.171

ICOSLG isoform 2 (UniProt O75144)
inactive: Tubastatin A -0.184 | pictilisib -0.024 | bafetinib -0.281

IGFN1 isoform 5 (UniProt Q86VF2)
inactive: [3] 0.132 | lapatinib -0.331

ING5 (UniProt Q8WYH8)
inactive: Tubastatin A 0.113 | [1] -0.129 | [4] 0.34 | encorafenib 0.183 | [2] 0.123 | alisertib 0.05 | [3] 0.163 | gefitinib -0.1 | lapatinib -0.026 | pictilisib -0.114 | duvelisib 0.106 | tozasertib -0.11 | bafetinib -0.143

IFT22 (UniProt Q9H7X7)
inactive: Tubastatin A -0.163 | [1] -0.031 | [4] 0.088 | encorafenib -0.15 | [2] 0.214 | pictilisib -0.195 | duvelisib 0.024 | tozasertib -0.201 | bafetinib -0.144

IDS (UniProt P22304)
inactive: [1] -0.019 | encorafenib 0.218 | [2] 0.205 | [3] -0.027 | lapatinib 0.005 | pictilisib 0.033 | tozasertib -0.552 | bafetinib 0.142

HUWE1 isoform 2 (UniProt Q7Z6Z7)
inactive: encorafenib -0.031 | [2] 0.097 | [3] 0.041 | lapatinib 0.21 | tozasertib 0.116

INPP5D (UniProt Q92835)
inactive: [1] 0.139

HUWE1 (UniProt H0Y659)
inactive: Tubastatin A 0.167 | [4] -0.057 | duvelisib 0.02

IFT88 (UniProt Q13099)
inactive: Tubastatin A -0.372 | alisertib 0.039 | gefitinib -0.07 | crizotinib -0.031 | doramapimod 0.448

HYDIN (UniProt Q4G0P3)
inactive: Tubastatin A -0.041 | defactinib 0.045 | [4] 0.414 | encorafenib 0.172 | [2] -0.02 | [3] -0.154 | lapatinib 0.037 | duvelisib 0.179 | tozasertib 0.041

INO80C isoform 4 (UniProt Q6PI98)
inactive: Tubastatin A 0.169 | [4] -0.059 | alisertib 0.055 | [3] 0.126 | gefitinib 0.019 | lapatinib 0.01 | pictilisib -0.188 | duvelisib 0.024 | bafetinib -0.061

IFT172 (UniProt Q9UG01)
inactive: Tubastatin A -0.244 | [1] 0.243 | defactinib 0.05 | [4] -0.037 | alisertib 0.034 | gefitinib 0.132 | duvelisib -0.1

IGHMBP2 (UniProt P38935)
inactive: [1] -0.008 | [4] 0.046 | encorafenib -0.029 | [2] 0.119 | alisertib 0.028 | [3] -0.035 | gefitinib -0.017 | lapatinib 0.251 | pictilisib -0.059 | crizotinib -0.007 | duvelisib -0.004 | tozasertib 0.047 | doramapimod 0.022 | bafetinib 0.007

IGF2BP2 isoform 6 (UniProt Q9Y6M1)
inactive: [3] 0.289 | lapatinib 0.084

ILF3 (UniProt K7EKJ9)
inactive: [3] 0.041 | lapatinib 0.141 | crizotinib 0.082 | doramapimod 0.054

IFT57 (UniProt Q9NWB7)
inactive: Tubastatin A -0.079 | [1] 0.02 | [4] 0.006 | encorafenib -0.145 | [2] -0.351 | alisertib 0.096 | [3] -0.335 | gefitinib -0.225 | lapatinib 0.076 | crizotinib -0.104 | duvelisib -0.031 | tozasertib 0.102 | doramapimod 0.029

HSPH1 isoform 2 (UniProt Q92598)
inactive: Tubastatin A 0.042 | [4] -0.049 | encorafenib 0.131 | [2] 0.127 | [3] -0.097 | lapatinib -0.015 | pictilisib -0.115 | duvelisib 0 | tozasertib -0.151 | bafetinib 0.173

INIP (UniProt Q9NRY2)
inactive: Tubastatin A 0.137 | [1] -0.119 | defactinib 0.208 | [4] 0.095 | [3] 0.13 | lapatinib 0.094 | duvelisib 0.287
